# Measured values taken from the supplement of paper PMC6411743.
# ± gives the standard deviation of the averaged measurements. This is a selection; strong and weak results do not stand in their true shares.
# Legend:
# Experiment in all cases: NP40-soluble protein abundance relative to vehicle (solubility fold change) (ratio); higher = more soluble protein in presence of AMP-PNP
# [1] = target: T1, E9PIV2 and related entries (UniProt P24001)
# T1 sequence (whole entry): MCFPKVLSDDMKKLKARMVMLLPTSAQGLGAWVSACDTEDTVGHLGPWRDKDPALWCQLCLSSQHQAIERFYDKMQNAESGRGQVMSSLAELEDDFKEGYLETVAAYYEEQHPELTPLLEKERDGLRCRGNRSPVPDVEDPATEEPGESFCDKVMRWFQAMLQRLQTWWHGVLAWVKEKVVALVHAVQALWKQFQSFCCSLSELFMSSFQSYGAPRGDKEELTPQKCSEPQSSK
# Summary of the method: (§1)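 Values are fold changes against the detergent-processed vehicle, based on vsn-normalised intensities. Jurkat crude lysate was treated at eight concentrations from 0.1 to 10 mM (10 min at room temperature, then 3 min at 37 °C), solubilised with 0.8% NP40 and benzonase, ultracentrifuged and analysed by TMT-labelled LC-MS/MS over three independent experiments.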
# E9PNT2 = target: T2, E9PNT2 (UniProt Q6ZUM4)
# T2 sequence (whole entry): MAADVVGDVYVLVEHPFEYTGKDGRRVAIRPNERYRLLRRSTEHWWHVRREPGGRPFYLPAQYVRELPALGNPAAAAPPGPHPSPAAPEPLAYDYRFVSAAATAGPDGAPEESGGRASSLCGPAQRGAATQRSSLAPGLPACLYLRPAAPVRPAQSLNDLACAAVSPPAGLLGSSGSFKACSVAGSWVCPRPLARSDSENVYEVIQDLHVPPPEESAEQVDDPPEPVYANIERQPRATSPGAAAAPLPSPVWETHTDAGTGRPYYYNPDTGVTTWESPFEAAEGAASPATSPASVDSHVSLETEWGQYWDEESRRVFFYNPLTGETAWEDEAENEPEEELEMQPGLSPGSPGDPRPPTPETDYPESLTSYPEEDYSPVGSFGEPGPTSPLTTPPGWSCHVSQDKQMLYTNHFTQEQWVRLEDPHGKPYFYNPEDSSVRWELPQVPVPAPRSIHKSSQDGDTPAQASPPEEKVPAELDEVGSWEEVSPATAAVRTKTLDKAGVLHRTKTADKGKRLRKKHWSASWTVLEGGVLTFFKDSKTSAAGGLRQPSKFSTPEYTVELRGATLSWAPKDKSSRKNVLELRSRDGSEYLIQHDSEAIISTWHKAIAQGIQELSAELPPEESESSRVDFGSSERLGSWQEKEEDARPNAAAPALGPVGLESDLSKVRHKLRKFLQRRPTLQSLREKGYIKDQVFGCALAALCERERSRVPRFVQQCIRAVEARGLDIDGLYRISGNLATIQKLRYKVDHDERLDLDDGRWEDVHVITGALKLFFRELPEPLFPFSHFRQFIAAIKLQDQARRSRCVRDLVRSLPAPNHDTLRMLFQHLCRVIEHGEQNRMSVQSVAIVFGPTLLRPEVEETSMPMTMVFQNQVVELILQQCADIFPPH
# Summary of the method: as §1
# [2] = target: T3, E9PNW4 and related entries (UniProt P13987)
# T3 sequence (whole entry): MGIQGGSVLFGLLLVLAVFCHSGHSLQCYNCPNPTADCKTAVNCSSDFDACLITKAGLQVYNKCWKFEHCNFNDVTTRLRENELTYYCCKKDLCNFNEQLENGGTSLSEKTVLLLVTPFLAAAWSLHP
# Summary of the method: as §1
# [3] = target: T4, E9PP16 and related entries (UniProt Q8ND30)
# T4 sequence (whole entry): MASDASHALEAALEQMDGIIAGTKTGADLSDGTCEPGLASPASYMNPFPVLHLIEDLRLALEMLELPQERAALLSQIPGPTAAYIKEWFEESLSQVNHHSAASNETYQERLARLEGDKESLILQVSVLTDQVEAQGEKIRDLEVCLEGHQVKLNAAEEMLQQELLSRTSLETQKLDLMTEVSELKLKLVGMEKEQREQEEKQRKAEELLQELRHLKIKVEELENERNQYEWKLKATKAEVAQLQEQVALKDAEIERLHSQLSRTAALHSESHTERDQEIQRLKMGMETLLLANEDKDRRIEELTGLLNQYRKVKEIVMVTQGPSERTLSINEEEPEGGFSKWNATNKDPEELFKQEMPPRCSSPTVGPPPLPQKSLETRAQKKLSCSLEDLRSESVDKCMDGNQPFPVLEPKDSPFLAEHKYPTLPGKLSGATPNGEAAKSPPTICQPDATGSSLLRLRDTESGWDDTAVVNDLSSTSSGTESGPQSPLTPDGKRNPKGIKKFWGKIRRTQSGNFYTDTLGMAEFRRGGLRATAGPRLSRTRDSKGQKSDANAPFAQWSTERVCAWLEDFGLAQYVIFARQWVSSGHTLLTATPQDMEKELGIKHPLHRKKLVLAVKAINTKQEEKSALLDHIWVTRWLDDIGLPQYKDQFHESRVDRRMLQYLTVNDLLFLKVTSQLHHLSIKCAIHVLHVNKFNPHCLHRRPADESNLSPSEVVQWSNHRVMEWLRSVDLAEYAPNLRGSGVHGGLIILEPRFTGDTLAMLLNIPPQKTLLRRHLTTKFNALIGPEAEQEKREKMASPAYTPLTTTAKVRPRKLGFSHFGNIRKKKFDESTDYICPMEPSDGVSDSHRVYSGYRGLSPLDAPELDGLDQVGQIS
# Summary of the method: as §1
# [4] = target: T5, F5GZS6 and related entries (UniProt P08195)
# T5 sequence (whole entry): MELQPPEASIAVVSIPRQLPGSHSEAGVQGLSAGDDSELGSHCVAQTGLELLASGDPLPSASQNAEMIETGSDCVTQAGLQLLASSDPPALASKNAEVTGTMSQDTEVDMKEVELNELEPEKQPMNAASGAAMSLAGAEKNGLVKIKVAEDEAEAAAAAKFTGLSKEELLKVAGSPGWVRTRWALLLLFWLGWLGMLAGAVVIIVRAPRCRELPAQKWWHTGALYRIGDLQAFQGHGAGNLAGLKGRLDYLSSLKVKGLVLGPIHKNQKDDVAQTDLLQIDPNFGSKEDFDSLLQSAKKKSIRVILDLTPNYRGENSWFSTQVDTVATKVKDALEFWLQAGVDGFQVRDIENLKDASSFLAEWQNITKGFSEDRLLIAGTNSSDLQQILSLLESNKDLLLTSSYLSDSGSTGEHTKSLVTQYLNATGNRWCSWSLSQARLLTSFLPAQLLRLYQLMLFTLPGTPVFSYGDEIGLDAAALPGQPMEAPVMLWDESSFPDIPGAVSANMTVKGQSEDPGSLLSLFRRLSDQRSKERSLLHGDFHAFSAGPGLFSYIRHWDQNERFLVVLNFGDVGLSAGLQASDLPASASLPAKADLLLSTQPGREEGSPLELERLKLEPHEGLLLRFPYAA
# Summary of the method: as §1
# [5] = target: T6, F5H2B9 and related entries (UniProt Q9BZF9)
# T6 sequence (whole entry): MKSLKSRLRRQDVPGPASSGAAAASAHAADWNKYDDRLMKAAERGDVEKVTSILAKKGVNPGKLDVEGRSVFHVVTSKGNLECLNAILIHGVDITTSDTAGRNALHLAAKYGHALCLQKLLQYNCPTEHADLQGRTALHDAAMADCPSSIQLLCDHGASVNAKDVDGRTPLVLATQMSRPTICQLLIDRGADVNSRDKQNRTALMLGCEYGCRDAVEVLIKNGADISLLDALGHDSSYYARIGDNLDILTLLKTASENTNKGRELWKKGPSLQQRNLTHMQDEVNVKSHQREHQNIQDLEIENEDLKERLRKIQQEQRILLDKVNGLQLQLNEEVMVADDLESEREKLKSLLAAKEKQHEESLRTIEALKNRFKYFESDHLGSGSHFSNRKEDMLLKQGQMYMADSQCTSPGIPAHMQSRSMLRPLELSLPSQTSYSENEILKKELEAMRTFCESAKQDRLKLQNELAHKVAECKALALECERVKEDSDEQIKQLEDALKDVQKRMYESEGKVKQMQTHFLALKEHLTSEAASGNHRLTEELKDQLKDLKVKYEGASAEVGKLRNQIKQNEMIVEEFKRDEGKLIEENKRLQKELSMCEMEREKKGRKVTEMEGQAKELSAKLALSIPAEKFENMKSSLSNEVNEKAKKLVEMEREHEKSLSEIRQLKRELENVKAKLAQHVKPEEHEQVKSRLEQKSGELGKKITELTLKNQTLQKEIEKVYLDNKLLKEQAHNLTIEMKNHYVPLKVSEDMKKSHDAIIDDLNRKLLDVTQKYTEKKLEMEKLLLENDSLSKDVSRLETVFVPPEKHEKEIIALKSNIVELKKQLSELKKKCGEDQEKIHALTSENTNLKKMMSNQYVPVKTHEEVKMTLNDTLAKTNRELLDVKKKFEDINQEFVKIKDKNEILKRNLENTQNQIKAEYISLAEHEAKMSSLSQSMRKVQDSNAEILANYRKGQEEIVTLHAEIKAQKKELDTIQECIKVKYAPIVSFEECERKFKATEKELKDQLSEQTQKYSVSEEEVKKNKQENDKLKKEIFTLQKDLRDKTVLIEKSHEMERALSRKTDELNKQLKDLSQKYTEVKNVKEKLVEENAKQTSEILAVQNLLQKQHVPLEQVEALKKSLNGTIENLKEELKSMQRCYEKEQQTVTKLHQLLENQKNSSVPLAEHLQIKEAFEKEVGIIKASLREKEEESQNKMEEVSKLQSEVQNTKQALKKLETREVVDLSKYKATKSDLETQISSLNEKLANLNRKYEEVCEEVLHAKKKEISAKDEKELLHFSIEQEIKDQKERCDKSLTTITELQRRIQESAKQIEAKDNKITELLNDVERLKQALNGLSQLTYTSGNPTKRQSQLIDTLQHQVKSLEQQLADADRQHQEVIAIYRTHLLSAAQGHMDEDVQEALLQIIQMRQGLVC
# Summary of the method: as §1
# [6] = target: T7, F8VXK3 and related entries (UniProt Q9NPF2)
# T7 sequence (whole entry): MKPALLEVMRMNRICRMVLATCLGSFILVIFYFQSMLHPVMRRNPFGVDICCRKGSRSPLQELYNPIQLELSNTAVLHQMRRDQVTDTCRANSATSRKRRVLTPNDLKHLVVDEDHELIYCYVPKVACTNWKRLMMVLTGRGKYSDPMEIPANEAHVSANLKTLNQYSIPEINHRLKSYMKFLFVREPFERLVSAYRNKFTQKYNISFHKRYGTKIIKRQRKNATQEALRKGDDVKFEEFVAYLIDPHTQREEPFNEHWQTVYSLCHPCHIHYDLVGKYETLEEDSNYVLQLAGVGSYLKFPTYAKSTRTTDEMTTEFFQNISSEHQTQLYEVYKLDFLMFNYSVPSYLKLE
# Summary of the method: as §1
smiles,measurement,setting,value
Nc1ncnc2c1ncn2[C@@H]1O[C@H](COP(=O)(O)OP(=O)(O)NP(=O)(O)O)[C@@H](O)[C@H]1O [adenylyl imidodiphosphate],NP40-soluble protein abundance,[1]; concentration: 6mM,0.981 ± 0.012
same,NP40-soluble protein abundance,[1]; concentration: 8mM,1 ± 0.016
same,NP40-soluble protein abundance,[1]; concentration: 10mM,0.9704 ± 0.0055
same,NP40-soluble protein abundance,E9PNT2; concentration: 1mM,0.982 ± 0.028
same,NP40-soluble protein abundance,E9PNT2; concentration: 2mM,0.934 ± 0.048
same,NP40-soluble protein abundance,E9PNT2; concentration: 4mM,0.979 ± 0.031
same,NP40-soluble protein abundance,E9PNT2; concentration: 6mM,0.99 ± 0.052
same,NP40-soluble protein abundance,E9PNT2; concentration: 8mM,1.02 ± 0.027
same,NP40-soluble protein abundance,E9PNT2; concentration: 10mM,1.02 ± 0.032
same,NP40-soluble protein abundance,[2]; concentration: 1mM,1.05 ± 0.053
same,NP40-soluble protein abundance,[2]; concentration: 2mM,1.11 ± 0.13
same,NP40-soluble protein abundance,[2]; concentration: 4mM,1.03 ± 0.049
same,NP40-soluble protein abundance,[2]; concentration: 6mM,1.07 ± 0.051
same,NP40-soluble protein abundance,[2]; concentration: 8mM,1.1 ± 0.015
same,NP40-soluble protein abundance,[2]; concentration: 10mM,1.06 ± 0.03
same,NP40-soluble protein abundance,[3]; concentration: 1mM,1.004 ± 0.0032
same,NP40-soluble protein abundance,[3]; concentration: 2mM,0.997 ± 0.022
same,NP40-soluble protein abundance,[3]; concentration: 4mM,0.996 ± 0.028
same,NP40-soluble protein abundance,[3]; concentration: 6mM,1.05 ± 0.036
same,NP40-soluble protein abundance,[3]; concentration: 8mM,1.01 ± 0.022
same,NP40-soluble protein abundance,[3]; concentration: 10mM,1.034 ± 0.0043
same,NP40-soluble protein abundance,[4]; concentration: 1mM,0.988 ± 0.045
same,NP40-soluble protein abundance,[4]; concentration: 2mM,1.01 ± 0.11
same,NP40-soluble protein abundance,[4]; concentration: 4mM,0.992 ± 0.061
same,NP40-soluble protein abundance,[4]; concentration: 6mM,1.04 ± 0.086
same,NP40-soluble protein abundance,[4]; concentration: 8mM,1.03 ± 0.081
same,NP40-soluble protein abundance,[4]; concentration: 10mM,1.04 ± 0.071
same,NP40-soluble protein abundance,[5]; concentration: 1mM,1.04 ± 0.032
same,NP40-soluble protein abundance,[5]; concentration: 2mM,1.06 ± 0.053
same,NP40-soluble protein abundance,[5]; concentration: 4mM,1.05 ± 0.025
same,NP40-soluble protein abundance,[5]; concentration: 6mM,0.986 ± 0.03
same,NP40-soluble protein abundance,[5]; concentration: 8mM,0.977 ± 0.04
same,NP40-soluble protein abundance,[5]; concentration: 10mM,1.008 ± 0.0053
same,NP40-soluble protein abundance,[6]; concentration: 1mM,0.9969 ± 0.0033
same,NP40-soluble protein abundance,[6]; concentration: 2mM,0.993 ± 0.044
same,NP40-soluble protein abundance,[6]; concentration: 4mM,1.01 ± 0.011
same,NP40-soluble protein abundance,[6]; concentration: 6mM,1.01 ± 0.012
same,NP40-soluble protein abundance,[6]; concentration: 8mM,0.992 ± 0.04
same,NP40-soluble protein abundance,[6]; concentration: 10mM,1.017 ± 0.0081

# Some of the entries above in another layout:
smiles	measurement	setting	value
Nc1ncnc2c1ncn2[C@@H]1O[C@H](COP(=O)(O)OP(=O)(O)NP(=O)(O)O)[C@@H](O)[C@H]1O [adenylyl imidodiphosphate]	NP40-soluble protein abundance	[3]; concentration: 4mM	0.996 ± 0.028
same	NP40-soluble protein abundance	[6]; concentration: 10mM	1.017 ± 0.0081
